Data as given in patent US10899763B2, “Crystalline forms of salts of fused penta-cyclic dihydrodiazepinocarbazolones, and uses thereof” (BEIGENE, LTD., priority 2017, dated 2021).
For at least one compound, name, drawing or mass did not settle the structure.

Test system: H209 SCLC xenograft
Assay: H209 SCLC xenograft model, combination with TMZ
Format: in vivo, mouse
Settings: one cycle of treatment
Description: The in vivo efficacy of Compound 1 was explored in H209 SCLC xenograft model to evaluate the combination effect of Compound 1 and Temozolomide (TMZ), a DNA alkylating agent. TMZ single agent was quite effective in this model. […] However, resistance occurred quickly during the second cycle. […] In order to investigate whether Compound 1 could overcome the TMZ resistance, TMZ-resistant (TR) H209 tumors were generated by treating the H209 tumors with multiple cycles of TMZ in vivo. […] Mice with established intracranial H209 xenografts were used to further investigate the combination activity of Compound 1 and TMZ on SCLC in brain.

## Cn1nnc2c(C(N)=O)ncn2c1=O [TMZ, Temozolomide, reference compound]
  tumor response to single agent: all animals tumor-free
